From PMC7819943, “Rice protein-binding microarrays: a tool to detect cis-acting elements near promoter regions in rice”
The other results are listed elsewhere or left out.

Biological target: T1, OsSMF1 (Oryza sativa, UniProt Q6ZLB0 1-436)
T1 sequence: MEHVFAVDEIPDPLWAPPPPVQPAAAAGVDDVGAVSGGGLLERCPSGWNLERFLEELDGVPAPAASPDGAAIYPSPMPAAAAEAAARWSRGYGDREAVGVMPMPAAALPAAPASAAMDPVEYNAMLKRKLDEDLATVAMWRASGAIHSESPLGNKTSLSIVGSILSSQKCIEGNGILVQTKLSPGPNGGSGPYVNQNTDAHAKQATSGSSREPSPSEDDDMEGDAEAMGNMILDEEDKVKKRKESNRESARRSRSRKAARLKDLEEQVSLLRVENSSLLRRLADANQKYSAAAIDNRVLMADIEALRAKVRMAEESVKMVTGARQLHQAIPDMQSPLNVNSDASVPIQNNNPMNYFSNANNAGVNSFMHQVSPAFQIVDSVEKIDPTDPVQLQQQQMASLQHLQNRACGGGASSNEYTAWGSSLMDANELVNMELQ
Assay: protein-binding microarray (RPBM); PBS, 2% BSA, 51.3 ng/ul salmon testes DNA, 50 uM zinc acetate, 200 nM TF, 25 C, 1 h; high values mean tight binding
Conditions: protein: recombinant; tags: N-terminal polyhistidine and DsRed monomer fusion (pET32a); chain copies: 2; label: CyDye5-dUTP incorporated in the synthesized complementary strand; 3' TTTTT single-stranded linker to array surface; dsDNA, one strand shown
Summary of the method: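 The binding signal for each feature is its fluorescence intensity in arbitrary units. An Axon 4000B scanner was used to read a custom Agilent array that had been made double-stranded with Cy5-dUTP primer extension, blocked with 2% BSA, incubated at 25 °C for 1 h with 200 nM protein in PBS, 2% BSA, salmon testes DNA and 50 µM zinc acetate, and washed. The protein was an N-terminal polyhistidine–DsRed transcription factor fusion from E. coli BL21-CodonPlus, purified on Ni–NTA.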

Row | Sequence | binding signal
1 | CAAAATCACAGAAATTTTGACACGTGGCATATAATGCCAGCGGAGTCACCTAGTGCAG | 21000 fluorescence intensity (a.u.)
2 | ACCAGCTCTGTCCCTGACAGTACAGTCATATAATTCCCTCCGGAGTCACCTAGTGCAG | 5950 fluorescence intensity (a.u.)
3 | GAAGACACGTTTATTTCGGATATGTATTTCCTACTAATACCGGAGTCACCTAGTGCAG | 3140 fluorescence intensity (a.u.)
4 | GCCGCCGCTGTCGCCATCCACGCTCCGAGCGCCACTGCCACGGAGTCACCTAGTGCAG | 3490 fluorescence intensity (a.u.)
5 | TATTCTCGCCGTTGTTGCGTGCCACGCCTCCCCTCCTTCCCGGAGTCACCTAGTGCAG | 3900 fluorescence intensity (a.u.)
6 | ATGCAATCAACAAACTGTCATCATCTCCAAATTTGCTTCACGGAGTCACCTAGTGCAG | 3240 fluorescence intensity (a.u.)
7 | TTGTTAAATATACTTTCATGTACACGTATAGTTTTACATACGGAGTCACCTAGTGCAG | 3590 fluorescence intensity (a.u.)
8 | AGGATAAAGGGCTTTTGTGAAAATAAAATTCTACCCGGGGCGGAGTCACCTAGTGCAG | 3550 fluorescence intensity (a.u.)
9 | GCCATCACCACCACCACCACCACCTCACCGCCGCCTCGCACGGAGTCACCTAGTGCAG | 4150 fluorescence intensity (a.u.)
10 | TGATCACAGTAAGGACAGGTAGAGAGTCAGCAGTGCTTCTCGGAGTCACCTAGTGCAG | 3380 fluorescence intensity (a.u.)
11 | TCCAACGGCATCCCGCAACCCACGTGTCCCTCACCGCGCGCGGAGTCACCTAGTGCAG | 6630 fluorescence intensity (a.u.)
12 | GGGTGTGTGGTGTATAAATCGCCAGCCTGTAGGCATGTGACGGAGTCACCTAGTGCAG | 3730 fluorescence intensity (a.u.)
13 | GCGGCGTCCAAGAACGGATTGAGATGGTGCTCCTCGCCATCGGAGTCACCTAGTGCAG | 3140 fluorescence intensity (a.u.)
14 | GTCGAGCGGCAGCAGCAGCATGACTCTGACTCCGACGGCACGGAGTCACCTAGTGCAG | 3160 fluorescence intensity (a.u.)
15 | TGCGCCATGTTGTCATGGCGGGATTATCCCCATTGACGCCCGGAGTCACCTAGTGCAG | 4040 fluorescence intensity (a.u.)
16 | TTGGATTGTGTGCTGGTTGCCTCCGATGGTCGCAAGGGCCCGGAGTCACCTAGTGCAG | 3250 fluorescence intensity (a.u.)
17 | ACATGTGTTCACGCGTGTGTATCTTCTACTCCCTCCGTTTCGGAGTCACCTAGTGCAG | 43200 fluorescence intensity (a.u.)
18 | ACGCAGGTGACGTGTCTCCCTGTGCCTACCAAATGTGGGCCGGAGTCACCTAGTGCAG | 15200 fluorescence intensity (a.u.)
19 | CTCGCCATCTCCAGCTCCGACCCCTGGCCCTTCTCCCTTTCGGAGTCACCTAGTGCAG | 3220 fluorescence intensity (a.u.)
20 | CTCGGGAGCCCGGTCATCACCTACTCCGCCCGCCGCCACCCGGAGTCACCTAGTGCAG | 4700 fluorescence intensity (a.u.)
21 | GTTTTAAGGGTATTTTGGGTATTTCTTAAAGAAAAGCCCACGGAGTCACCTAGTGCAG | 15300 fluorescence intensity (a.u.)

Row | Sequence | binding signal
22 | ATTAAAATCACGTGACTCTCTCTTGCGTGGAAGCAACACACGGAGTCACCTAGTGCAG | 5000 fluorescence intensity (a.u.)
23 | AAGCTTAATTTGTCGTTAAGCACCTGCAGAGCTCGCATGACGGAGTCACCTAGTGCAG | 4560 fluorescence intensity (a.u.)
24 | TTGCTAGCATTAGATAGGAACCTGCTGACTGGACCACTACCGGAGTCACCTAGTGCAG | 11600 fluorescence intensity (a.u.)
25 | CGTCTCCGCCGCCACGTCGCCGGCCGCCGGACCTCCTCTCCGGAGTCACCTAGTGCAG | 8900 fluorescence intensity (a.u.)
26 | ACCGGCACTTGCTTCACAAGTGACATGTAAAAGGAGGGTGCGGAGTCACCTAGTGCAG | 3610 fluorescence intensity (a.u.)
27 | CCTATTCCATTGTTCTTTGGTTTGCTGGTGTTATTCCCCGCGGAGTCACCTAGTGCAG | 3630 fluorescence intensity (a.u.)
28 | TGCTTAAGCTTTGTTCTGTGAAACCAGGGCGCCAACGGGGCGGAGTCACCTAGTGCAG | 3450 fluorescence intensity (a.u.)
29 | CGTTTCTTTAGAAGTGCACACATGACACATGTGTCGGGTCCGGAGTCACCTAGTGCAG | 3930 fluorescence intensity (a.u.)
30 | GTACTGATCTCTATGGCTAGCCAGCTGGCTCGACCTGGTTCGGAGTCACCTAGTGCAG | 3630 fluorescence intensity (a.u.)
31 | AGCGGTACAAGGTGGAGTGCCAGCGGCTCGCCGGCTCGGGCGGAGTCACCTAGTGCAG | 28200 fluorescence intensity (a.u.)
32 | TCACATCAACTAGATTATTAAGAACAAATTGATTAATATTCGGAGTCACCTAGTGCAG | 26900 fluorescence intensity (a.u.)
33 | TACTTTATCCGCGGCGGGTAGCTGGGGAGGGAGGGGAGGCCGGAGTCACCTAGTGCAG | 5170 fluorescence intensity (a.u.)
34 | AGGAGCTGATTGGGCCATTTTCATCACACGTCACATCGGCCGGAGTCACCTAGTGCAG | 10000 fluorescence intensity (a.u.)
35 | AGGACCACCGCGATGGTCGCGCTGTCAGCGGCGAGGATGCCGGAGTCACCTAGTGCAG | 5360 fluorescence intensity (a.u.)
36 | GGCGCGCAGAAATCAGGAGCGATGAGTTGGGAAAACTGGGCGGAGTCACCTAGTGCAG | 3340 fluorescence intensity (a.u.)
37 | CTGGTTGTGTGGGCGGAAGTTGGCTATGCTGGCGCATGGGCGGAGTCACCTAGTGCAG | 3420 fluorescence intensity (a.u.)
38 | CCGTGTTAATTACGGACAGAATAACCTCCATATACGTGGTCGGAGTCACCTAGTGCAG | 3580 fluorescence intensity (a.u.)
39 | GTGTGGCAAGAGTTTCGCCACGTCAGACATGATGGTGTGGCGGAGTCACCTAGTGCAG | 21200 fluorescence intensity (a.u.)
40 | CCTGCCAGGGGAGCAACCAAAGCCGCCACGCGCCCACGCTCGGAGTCACCTAGTGCAG | 3290 fluorescence intensity (a.u.)
41 | GGTAGCAACGCGAGAGGCCGTGGTCCGTCACGGAGTGGCGCGGAGTCACCTAGTGCAG | 3310 fluorescence intensity (a.u.)
42 | ATGCTAGAAAGTCTTATAACCTGAAACGGAGGTAGTAGGACGGAGTCACCTAGTGCAG | 65000 fluorescence intensity (a.u.)

From no. 31 as far as 33, as listed above:
Row | Sequence | binding signal
31 | AGCGGTACAAGGTGGAGTGCCAGCGGCTCGCCGGCTCGGGCGGAGTCACCTAGTGCAG | 28200 fluorescence intensity (a.u.)
32 | TCACATCAACTAGATTATTAAGAACAAATTGATTAATATTCGGAGTCACCTAGTGCAG | 26900 fluorescence intensity (a.u.)
33 | TACTTTATCCGCGGCGGGTAGCTGGGGAGGGAGGGGAGGCCGGAGTCACCTAGTGCAG | 5170 fluorescence intensity (a.u.)
